The campaign covered roughly 59,000 compounds. About 35 (0.06%) were called active. This list was built around the results that the source calls inconclusive (neither active nor inactive); the mix of calls is not that of the screen. No stated cut-off is given here; in the data, active means max dye-equivalent concentration above about 10 nM; inconclusive means between about 1.1 nM and that limit; inactive means weaker than that.
Assay: qHTS Assay for Spectroscopic Profiling in Texas Red Spectral Region
Details: Compound fluorescence, Texas Red channel, 547/618 nm; stronger effect = higher value
Method in brief: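 Spectral interference profiling: each compound concentration's relative fluorescence, read with a 547 nm excitation and 618 nm emission filter pair, was normalized to a per-plate Texas Red standard curve.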

Row | Structure (SMILES) | max dye-equivalent concentration
1 | O=C(O)[C@@H]1[C@@H](C(=O)NCc2ccncc2)[C@@H]2C=C[C@@H]1O2 | inactive
2 | COC1=C(OC)c2ccccc2C(C(=O)O)N/C1=C(/C)Nc1ccncc1 (configuration not stated) | inconclusive: 1.4 nM
3 | COc1ccc(CNC(=O)Nc2cccc(C)c2)cc1 | inconclusive: 2.3 nM
4 | COc1ccc(C(=O)Nc2ccc(S(=O)(=O)N3CCCCC3)cc2)cc1OC | inconclusive: 1.3 nM
5 | O=C(Cn1nnc(-c2ccccc2)n1)OCc1ccccc1 | inconclusive: 1.1 nM
6 | COc1ccc(CN(C(=O)Cn2nnc3ccccc32)C(C(=O)NC(C)(C)C)c2ccco2)cc1 (configuration not stated) | inconclusive: 1.3 nM
7 | Cc1cc(NC(=O)COn2nnc3ccc(Cl)cc32)no1 | inconclusive: 1.2 nM
8 | COc1ccc(OCCC(=O)Nc2cc(C)on2)cc1 | inconclusive: 1.4 nM
9 | Cc1cc(C)cc(-n2nnc(C(=O)NCc3ccc(Cl)cc3)c2N)c1 | inconclusive: 1.1 nM
10 | CCOCCCNC(=O)C1CC(=O)N(C2CCCC2)C1 (configuration not stated) | inconclusive: 1.7 nM
11 | CCC(=O)OC1(C#CCOc2ccc(OC)cc2)CCN(C)CC1 | inconclusive: 1.4 nM
12 | COc1ccc(C2C3C(=O)N(Cc4ccccc4)C(=O)C3ON2c2ccccc2)c(OC)c1OC (configuration not stated) | inconclusive: 1.8 nM
13 | CN/C(=C\[N+](=O)[O-])NCCSCc1ccc(CN(C)C)o1 | inconclusive: 1.6 nM
14 | O=C1C(=O)c2ccccc2C(O)=C1Cc1ccccc1 | inactive
15 | Cc1cc(C(F)(F)F)nc(SCC(=O)NC2=NC(=O)C(C)S2)n1 (configuration not stated) | inconclusive: 1.7 nM
16 | CCC(C)[C@H](N)c1nnc(SCC(=O)Nc2cccc(Cl)c2)o1 (some centres not stated) | inconclusive: 1.2 nM
17 | CCOC(=O)C1CCCN(S(=O)(=O)c2c(C)c(C)cc(C)c2C)C1 (configuration not stated) | inconclusive: 1.3 nM
18 | CN(C)c1ccc(-c2cncnc2Nc2ccc(F)cc2)cc1 | inactive
19 | C=CCNc1nc(-c2ccc(O)c(C(N)=O)c2)cs1 | inconclusive: 1.1 nM
20 | Oc1ccc(-c2nnc(-c3ccc(O)cc3)nn2)cc1 | inconclusive: 1.1 nM
21 | Cc1cc(C)n(C(=O)c2cccc(S(=O)(=O)N3CCCC3)c2)n1 | inconclusive: 1.3 nM
22 | C1COC(NC(C2CC2)C2CC2)=N1 | inconclusive: 1.2 nM

Three structures out of the list, ordered by length of the SMILES, descending.
Row | Structure (SMILES) | max dye-equivalent concentration
15 | Cc1cc(C(F)(F)F)nc(SCC(=O)NC2=NC(=O)C(C)S2)n1 (configuration not stated) | inconclusive: 1.7 nM
13 | CN/C(=C\[N+](=O)[O-])NCCSCc1ccc(CN(C)C)o1 | inconclusive: 1.6 nM
19 | C=CCNc1nc(-c2ccc(O)c(C(N)=O)c2)cs1 | inconclusive: 1.1 nM

Further records follow:

Row | Structure (SMILES) | max dye-equivalent concentration
23 | COc1cccc(C2NC(=O)NC(C)=C2C(=O)Nc2cccc(C)c2C)c1 (configuration not stated) | inconclusive: 1.4 nM
24 | CCn1nc(C)c(/C=C2\CCCC3=C2OC(N)=C(C#N)C3c2c(C)nn(CC)c2C)c1C (configuration not stated) | inactive
25 | CN(CCC#N)C(=O)COC(=O)c1ccc(Cl)c(S(N)(=O)=O)c1 | inconclusive: 2.6 nM
26 | COc1ccc(OC)c(NC(=O)CCCN2C(=O)C3C4C=CC(C4)C3C2=O)c1 (configuration not stated) | inconclusive: 1.1 nM
27 | CC1(c2ccccc2)NC(=O)N(CCOc2ccccc2)C1=O (configuration not stated) | inconclusive: 1.5 nM
28 | CCCc1nc2sc3c(SCC(=O)NCc4ccco4)ncnc3c2c2c1CCC2 | inconclusive: 1.1 nM
29 | CN1C(=O)CC[C@@H]1c1cccnc1 | inconclusive: 1.2 nM
30 | Cc1nc(N)c(C#N)c(-c2ccccc2)c1C | inconclusive: 1.3 nM
31 | Cc1nc2cncnc2n(C2CC2)c1=O | inactive
32 | COC(=O)c1c(N)n(-c2cc(OC)cc(OC)c2)c2nc3ccccc3nc12 | inconclusive: 1.5 nM
33 | C=CCn1c(Cc2csc(N)n2)nnc1SCC(=O)Nc1ccc(C(=O)OCC)cc1 | inconclusive: 2.1 nM
34 | O=C(C1CCC1)N1CCc2cc(S(=O)(=O)NCc3ccco3)ccc21 | inconclusive: 1.1 nM
35 | O=C(CCCn1c(SCC(=O)c2ccc(Cl)cc2)nc2ccccc2c1=O)NCc1ccco1 | inconclusive: 1.2 nM
36 | O=C(C1CCN(S(=O)(=O)N2CCC3(CC2)OCCO3)CC1)N1CCc2ccccc2C1 | inconclusive: 1.3 nM
37 | C[N+](C)(C)CC=O | inconclusive: 1.1 nM
38 | Cc1cnc(C(=O)Nc2cccc3cccnc23)cn1 | inconclusive: 2 nM
39 | O=C(NC1CCCC1)C1CCCN(S(=O)(=O)c2ccc(-n3cnnn3)cc2)C1 (configuration not stated) | inconclusive: 1.4 nM
40 | Cc1ccc(C)c(OCC(=O)Nc2ccc3c(c2)OCO3)c1C | inconclusive: 1.3 nM
41 | Cc1cc(N2CCN(C(=O)c3ccco3)CC2)n2nc(-c3cccc(Cl)c3)cc2n1 | inconclusive: 2.3 nM
42 | O=C(NC1CCCCC1)C1CCN(c2cnccn2)CC1 | inconclusive: 1.7 nM
43 | CCOC(=O)N1CCN(S(=O)(=O)c2cc3c(cc2C)NC(=O)CO3)CC1 | inconclusive: 1.2 nM
44 | CC(NS(C)(=O)=O)C(c1cccs1)N1CCN(c2ccccc2F)CC1 (configuration not stated) | inconclusive: 1.1 nM

Pulled one by one from above:
Row | Structure (SMILES) | max dye-equivalent concentration
26 | COc1ccc(OC)c(NC(=O)CCCN2C(=O)C3C4C=CC(C4)C3C2=O)c1 (configuration not stated) | inconclusive: 1.1 nM
30 | Cc1nc(N)c(C#N)c(-c2ccccc2)c1C | inconclusive: 1.3 nM
23 | COc1cccc(C2NC(=O)NC(C)=C2C(=O)Nc2cccc(C)c2C)c1 (configuration not stated) | inconclusive: 1.4 nM
36 | O=C(C1CCN(S(=O)(=O)N2CCC3(CC2)OCCO3)CC1)N1CCc2ccccc2C1 | inconclusive: 1.3 nM

Next part:

Row | Structure (SMILES) | max dye-equivalent concentration
45 | O=S(=O)(c1ccccc1)N1CCC2(CCCN(Cc3nccs3)C2)CC1 | inactive
46 | CC(=O)O[C@@H]1[C@H]([N+]2(C)CCCCC2)C[C@@H]2[C@@H]3CC[C@@H]4C[C@@H](OC(C)=O)[C@H]([N+]5(C)CCCCC5)C[C@@]4(C)[C@H]3CC[C@]21C | inconclusive: 1.5 nM
47 | CC(C)(CN)CN | inactive
48 | COc1ccc(N(CN2C(=O)c3ccccc3C2=O)C(=O)C(C)C)cc1 | inconclusive: 1.1 nM
49 | COc1ccc(OCC(=O)Nc2ccc(S(=O)(=O)Nc3cc(C)nc(C)n3)cc2)cc1 | inconclusive: 1.2 nM
50 | O=C(CSc1nnc(CNc2ccc(F)cc2)o1)N1CCN(C(=O)c2ccco2)CC1 | inconclusive: 1.3 nM
51 | O=C(O)c1cn(C2CC2)c2cc(N3CCNCC3)c(F)cc2c1=O | inactive
52 | CN(C(=O)c1ccc(S(=O)(=O)NC2CCCC2)cc1)C1CCCCC1 | inconclusive: 1.2 nM
53 | c1ccc2nc3c(nc2c1)c1ccccc1n3CCN1CCOCC1 | inconclusive: 1.2 nM
54 | COc1ccccc1OCCC(=O)OCCN1C(=O)c2ccccc2C1=O | inconclusive: 1.1 nM
55 | O=C(NCC1CCCO1)c1cccc(N2CCCC2=O)c1 (configuration not stated) | inconclusive: 1.2 nM
56 | CCOC(=O)c1sc(=NC(=O)c2cc(OC)c(OC)c(OC)c2)n(C)c1C | inconclusive: 1.7 nM
57 | CCc1nnc(NC(=O)CSc2nnc(CSc3nc(C)cc(C)n3)o2)s1 | inconclusive: 1.2 nM
58 | CN1CCN(c2nc3ccccc3nc2C(C#N)C(=O)OC2CCCCC2)CC1 (configuration not stated) | inconclusive: 1.2 nM
59 | Cc1ccc(C)c(N2CCN(C(=O)CN3C(=O)c4ccccc4C3=O)CC2)c1 | inconclusive: 2 nM
60 | CCOC(=O)N1CCN(c2cc(NCCC(=O)O)c3c4c(onc24)-c2ccccc2C3=O)CC1 | inconclusive: 7.9 nM
61 | CC1CN(C(=O)CSc2nnc(-c3ccncc3)n2-c2ccccc2)CC(C)O1 (configuration not stated) | inconclusive: 1.2 nM
62 | O=C(NCCCN1CCOCC1)c1cc2c(s1)CCCC2 | inconclusive: 1.8 nM
63 | O=C(COC(=O)c1ccccn1)Nc1c(Cl)cccc1Cl | inconclusive: 1.2 nM
64 | Cn1c(=O)c2c(ncn2Cc2cc(-c3ccccc3)no2)n(C)c1=O | inconclusive: 1.6 nM
65 | CC1(C)CC(=O)c2c(nc3ccccc3c2N)C1 | inconclusive: 1.8 nM
66 | CCCCn1c(-c2ccccc2)nnc1-c1ccccc1 | inconclusive: 2.1 nM

Row | Structure (SMILES) | max dye-equivalent concentration
67 | CN(C)c1ccc(/C=C/C(O)=C2/C(=O)N(C)C3(C)CC2c2ccccc2O3)cc1 (configuration not stated) | inactive
68 | Cc1cccc(OCCCC(=O)O)c1 | inconclusive: 1.1 nM
69 | COC(=O)CSc1nnc(-c2ccco2)n1Cc1ccco1 | inconclusive: 1.2 nM
70 | CN(C)c1ncc(C(=O)O)cn1 | inconclusive: 1.2 nM
71 | COc1ccc(N2CCN(Cc3cc(=O)oc4ccc(Cl)cc34)CC2)cc1 | inconclusive: 1.3 nM
72 | Cc1nn2c(c1-c1ccccc1)NC1=C(C(=O)CCC1)C2c1cccnc1 (configuration not stated) | inconclusive: 1.2 nM
73 | CCCCSc1nnc(CCCCCNC(=O)OC(C)(C)C)o1 | inconclusive: 1.5 nM
74 | CN1[C@@H]2CC[C@H]1CC(NC(=O)c1nn(C)c3ccccc13)C2 (some centres not stated) | inconclusive: 1.4 nM
75 | CCC(=O)Nc1ccc(NC(=O)c2ccco2)c(OC)c1 | inconclusive: 1.6 nM
76 | CC(C)(C)c1ccc(C(=O)NCCC(=O)NCc2ccco2)cc1 | inactive
77 | Cc1cccc(NC(=O)c2ccccn2)c1C | inconclusive: 1.5 nM
78 | Cc1ccsc1C(=O)OCC(=O)Nc1sccc1C(N)=O | inconclusive: 1.3 nM
79 | c1ccc(N2CCN(c3nc(NCc4ccco4)c4ccccc4n3)CC2)cc1 | inconclusive: 1.4 nM
80 | CCOC(=O)C1=C(C)NC(=O)NC1c1cc2c(cc1Br)OCO2 (configuration not stated) | inconclusive: 1.4 nM
81 | O=C(Nc1ccc(-c2nc3ccccc3o2)c(O)c1)c1cc(-n2cnnc2)ccc1Cl | inconclusive: 1.1 nM
82 | Clc1ccccc1NN(Cc1ccncc1)c1ccccc1Cl | inactive
83 | Cc1ccc(CNc2nc3c([nH]2)c(=O)n(C)c(=O)n3C)cc1 | inconclusive: 1.5 nM
84 | COc1ccccc1NC(=O)C1CCN(c2ncccn2)CC1 | inconclusive: 1.7 nM
85 | CCCCC(=O)Nc1ccc(C(N)=O)cc1 | inconclusive: 1.6 nM
86 | O=C(CCCc1nc(-c2ccc(Cl)cc2)no1)N1CCOCC1 | inconclusive: 2.7 nM
87 | CC1=c2c(oc3cc(O)c(Nc4c(C)cc(O)cc4O)c(C)c23)=CC(=O)C1=Nc1c(C)cc(O)cc1O | active: 260 nM
